Source: patent US20210379040A1, “COMBINATION TREATMENT OF LIVER DISORDERS” (Terns Pharmaceuticals, Inc., priority 2020, published 2021)

System: FXR-regulated gene expression in liver and ileum
Test: Mechanism of action: tissue RNA by RT-qPCR and RNAseq after single oral dose
Settings: C57BL/6 mice liver RNAseq, 10 mg/kg Compound 1, 30 mg/kg OCA

Cn1cc(C(=O)O)c2ccc(N3CCC(OCc4c(-c5c(Cl)cccc5Cl)noc4C4CC4)CC3)cc21 [Compound 1]
number of differentially expressed (NASH-related) genes modulated relative to vehicle control (6 hours after single oral dose, fold change ≥1.5): 500
number of global pathways enriched (p<0.05): 32
